Data published in the supplement of paper PMC12067093, “Discovery and optimisation of a covalent ligand for TRIM25 and its application to targeted protein ubiquitination” (Chemical Science, 2025).
Some of the results follow.

Amino acid sequences for entries named in this document (tags omitted). A change or cut given only in a name is not applied to a line headed by its entry.
UniProt Q12805: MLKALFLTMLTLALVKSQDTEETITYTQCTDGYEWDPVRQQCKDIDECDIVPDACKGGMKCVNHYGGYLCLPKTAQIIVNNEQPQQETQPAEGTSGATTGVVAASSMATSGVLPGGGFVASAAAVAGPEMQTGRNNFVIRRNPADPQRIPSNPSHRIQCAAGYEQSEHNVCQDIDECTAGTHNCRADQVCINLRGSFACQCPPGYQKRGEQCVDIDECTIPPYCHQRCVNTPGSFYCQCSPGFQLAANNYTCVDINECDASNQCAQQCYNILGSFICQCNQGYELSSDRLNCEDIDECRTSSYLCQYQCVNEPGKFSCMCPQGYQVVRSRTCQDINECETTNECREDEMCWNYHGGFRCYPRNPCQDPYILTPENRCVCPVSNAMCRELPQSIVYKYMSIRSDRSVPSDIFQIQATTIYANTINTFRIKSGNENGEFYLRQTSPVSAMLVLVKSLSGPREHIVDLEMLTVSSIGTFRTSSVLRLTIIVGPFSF
UniProt Q15029: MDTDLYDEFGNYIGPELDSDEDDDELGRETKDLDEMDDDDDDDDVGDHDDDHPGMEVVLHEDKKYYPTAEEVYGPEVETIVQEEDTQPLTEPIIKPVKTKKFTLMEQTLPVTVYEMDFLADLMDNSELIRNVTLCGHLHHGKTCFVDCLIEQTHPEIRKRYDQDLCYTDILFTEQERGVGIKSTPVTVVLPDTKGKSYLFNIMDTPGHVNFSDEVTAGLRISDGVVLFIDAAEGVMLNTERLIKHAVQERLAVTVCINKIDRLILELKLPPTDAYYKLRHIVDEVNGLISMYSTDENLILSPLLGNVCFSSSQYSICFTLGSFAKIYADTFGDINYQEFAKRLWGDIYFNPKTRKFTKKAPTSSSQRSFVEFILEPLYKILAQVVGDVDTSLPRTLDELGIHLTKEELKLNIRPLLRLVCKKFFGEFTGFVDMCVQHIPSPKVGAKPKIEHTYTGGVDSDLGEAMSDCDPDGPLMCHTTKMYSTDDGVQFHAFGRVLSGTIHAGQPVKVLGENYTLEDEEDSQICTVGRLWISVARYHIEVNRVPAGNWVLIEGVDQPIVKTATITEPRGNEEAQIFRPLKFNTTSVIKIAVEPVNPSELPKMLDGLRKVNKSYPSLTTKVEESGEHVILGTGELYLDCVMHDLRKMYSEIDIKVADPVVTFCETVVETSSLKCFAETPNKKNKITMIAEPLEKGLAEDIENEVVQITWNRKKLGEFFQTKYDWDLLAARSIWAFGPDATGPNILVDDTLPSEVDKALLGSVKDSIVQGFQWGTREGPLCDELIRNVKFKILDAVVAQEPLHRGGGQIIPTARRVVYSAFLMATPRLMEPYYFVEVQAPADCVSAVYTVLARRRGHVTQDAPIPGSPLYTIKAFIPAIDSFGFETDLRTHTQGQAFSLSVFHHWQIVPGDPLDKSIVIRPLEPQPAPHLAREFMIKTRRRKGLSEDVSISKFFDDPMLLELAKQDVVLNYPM
UniProt O75530, whole entry, looked up: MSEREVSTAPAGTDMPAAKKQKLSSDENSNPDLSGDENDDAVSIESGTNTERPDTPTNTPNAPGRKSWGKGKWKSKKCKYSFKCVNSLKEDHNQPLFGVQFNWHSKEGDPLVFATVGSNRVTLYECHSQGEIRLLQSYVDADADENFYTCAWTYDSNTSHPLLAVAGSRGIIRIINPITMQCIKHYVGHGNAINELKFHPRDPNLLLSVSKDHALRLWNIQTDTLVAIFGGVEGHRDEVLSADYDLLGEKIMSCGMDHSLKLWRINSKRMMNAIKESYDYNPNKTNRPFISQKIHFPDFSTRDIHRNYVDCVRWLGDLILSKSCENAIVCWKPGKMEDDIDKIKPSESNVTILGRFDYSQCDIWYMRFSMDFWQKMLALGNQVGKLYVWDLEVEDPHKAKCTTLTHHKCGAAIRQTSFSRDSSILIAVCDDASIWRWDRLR
UniProt Q14232, whole entry, looked up: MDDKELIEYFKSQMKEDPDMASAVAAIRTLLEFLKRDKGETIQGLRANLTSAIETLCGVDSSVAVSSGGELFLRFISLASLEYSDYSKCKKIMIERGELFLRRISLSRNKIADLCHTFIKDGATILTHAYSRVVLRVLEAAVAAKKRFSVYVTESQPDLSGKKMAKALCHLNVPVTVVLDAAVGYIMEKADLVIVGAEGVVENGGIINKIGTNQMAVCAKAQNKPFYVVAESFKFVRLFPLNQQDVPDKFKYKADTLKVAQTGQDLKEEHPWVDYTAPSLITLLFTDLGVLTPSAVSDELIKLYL
UniProt P05198, whole entry, looked up: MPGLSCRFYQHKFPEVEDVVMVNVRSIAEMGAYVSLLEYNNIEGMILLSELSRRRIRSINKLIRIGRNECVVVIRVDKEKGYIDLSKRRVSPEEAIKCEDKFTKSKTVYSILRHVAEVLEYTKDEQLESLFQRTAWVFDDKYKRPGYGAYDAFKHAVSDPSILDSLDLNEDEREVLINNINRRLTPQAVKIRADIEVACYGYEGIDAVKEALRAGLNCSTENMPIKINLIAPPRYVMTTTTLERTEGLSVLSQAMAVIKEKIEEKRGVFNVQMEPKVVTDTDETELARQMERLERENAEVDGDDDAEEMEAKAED
UniProt P57772: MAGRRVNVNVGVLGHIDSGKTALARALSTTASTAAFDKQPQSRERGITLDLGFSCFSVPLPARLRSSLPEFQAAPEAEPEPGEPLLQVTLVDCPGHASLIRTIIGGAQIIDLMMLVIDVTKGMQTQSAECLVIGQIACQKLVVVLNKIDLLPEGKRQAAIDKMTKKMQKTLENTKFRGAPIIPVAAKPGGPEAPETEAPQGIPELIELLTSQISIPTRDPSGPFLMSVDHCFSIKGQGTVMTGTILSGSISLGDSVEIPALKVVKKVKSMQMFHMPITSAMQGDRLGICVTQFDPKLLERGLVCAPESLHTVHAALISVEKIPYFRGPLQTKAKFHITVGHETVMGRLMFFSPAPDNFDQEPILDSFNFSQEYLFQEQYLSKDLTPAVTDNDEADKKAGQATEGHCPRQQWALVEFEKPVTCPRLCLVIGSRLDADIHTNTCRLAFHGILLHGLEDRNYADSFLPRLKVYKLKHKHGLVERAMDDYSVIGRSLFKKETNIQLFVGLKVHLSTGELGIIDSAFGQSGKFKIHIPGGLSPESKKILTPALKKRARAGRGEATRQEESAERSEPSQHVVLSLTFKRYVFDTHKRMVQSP
UniProt Q9NR50: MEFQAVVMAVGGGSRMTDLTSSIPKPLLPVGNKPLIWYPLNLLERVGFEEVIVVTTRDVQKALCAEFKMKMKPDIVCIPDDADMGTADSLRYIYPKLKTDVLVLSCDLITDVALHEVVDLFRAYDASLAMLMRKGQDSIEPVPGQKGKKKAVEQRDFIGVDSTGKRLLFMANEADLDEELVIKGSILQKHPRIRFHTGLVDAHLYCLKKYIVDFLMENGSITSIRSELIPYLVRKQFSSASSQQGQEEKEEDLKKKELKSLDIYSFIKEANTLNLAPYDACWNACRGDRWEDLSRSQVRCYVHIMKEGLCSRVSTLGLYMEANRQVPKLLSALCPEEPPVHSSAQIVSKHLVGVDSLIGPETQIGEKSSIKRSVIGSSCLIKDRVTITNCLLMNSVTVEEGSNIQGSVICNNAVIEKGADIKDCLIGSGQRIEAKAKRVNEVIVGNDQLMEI
UniProt Q14152, whole entry, looked up: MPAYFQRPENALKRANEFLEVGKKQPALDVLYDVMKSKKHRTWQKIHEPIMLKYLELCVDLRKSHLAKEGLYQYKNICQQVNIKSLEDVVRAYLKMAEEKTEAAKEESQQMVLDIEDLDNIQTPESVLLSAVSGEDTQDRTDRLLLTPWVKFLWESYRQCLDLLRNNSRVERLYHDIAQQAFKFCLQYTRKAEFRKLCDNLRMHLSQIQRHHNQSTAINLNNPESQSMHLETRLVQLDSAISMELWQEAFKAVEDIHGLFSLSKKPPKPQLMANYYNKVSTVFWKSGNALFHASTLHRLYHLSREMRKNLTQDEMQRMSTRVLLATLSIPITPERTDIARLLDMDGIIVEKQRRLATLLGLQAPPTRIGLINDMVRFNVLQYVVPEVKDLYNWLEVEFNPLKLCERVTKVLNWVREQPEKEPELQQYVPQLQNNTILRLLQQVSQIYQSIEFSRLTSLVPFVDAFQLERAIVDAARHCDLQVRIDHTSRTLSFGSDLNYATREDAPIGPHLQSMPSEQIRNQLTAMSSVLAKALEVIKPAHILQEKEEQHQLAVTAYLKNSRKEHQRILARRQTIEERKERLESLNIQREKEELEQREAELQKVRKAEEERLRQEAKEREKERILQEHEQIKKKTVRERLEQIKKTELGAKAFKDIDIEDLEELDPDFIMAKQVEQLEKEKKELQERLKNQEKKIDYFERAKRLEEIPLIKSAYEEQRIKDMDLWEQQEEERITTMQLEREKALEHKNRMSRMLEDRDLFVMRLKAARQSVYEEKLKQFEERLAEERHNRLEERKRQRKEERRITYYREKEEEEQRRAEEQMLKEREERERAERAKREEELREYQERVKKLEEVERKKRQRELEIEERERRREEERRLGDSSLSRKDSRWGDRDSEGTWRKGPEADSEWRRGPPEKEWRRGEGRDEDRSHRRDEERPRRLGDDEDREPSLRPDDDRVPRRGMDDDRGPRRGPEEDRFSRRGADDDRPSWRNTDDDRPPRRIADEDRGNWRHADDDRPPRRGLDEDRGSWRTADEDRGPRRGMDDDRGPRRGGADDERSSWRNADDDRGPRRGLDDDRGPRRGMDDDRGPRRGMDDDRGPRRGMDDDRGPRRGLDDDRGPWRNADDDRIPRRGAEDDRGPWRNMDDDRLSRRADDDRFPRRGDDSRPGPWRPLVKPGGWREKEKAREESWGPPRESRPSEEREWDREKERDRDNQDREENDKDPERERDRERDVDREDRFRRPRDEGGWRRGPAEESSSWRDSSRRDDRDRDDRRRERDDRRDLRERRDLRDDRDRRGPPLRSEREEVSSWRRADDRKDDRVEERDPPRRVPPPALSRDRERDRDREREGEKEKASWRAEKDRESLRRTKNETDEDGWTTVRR
UniProt P19525: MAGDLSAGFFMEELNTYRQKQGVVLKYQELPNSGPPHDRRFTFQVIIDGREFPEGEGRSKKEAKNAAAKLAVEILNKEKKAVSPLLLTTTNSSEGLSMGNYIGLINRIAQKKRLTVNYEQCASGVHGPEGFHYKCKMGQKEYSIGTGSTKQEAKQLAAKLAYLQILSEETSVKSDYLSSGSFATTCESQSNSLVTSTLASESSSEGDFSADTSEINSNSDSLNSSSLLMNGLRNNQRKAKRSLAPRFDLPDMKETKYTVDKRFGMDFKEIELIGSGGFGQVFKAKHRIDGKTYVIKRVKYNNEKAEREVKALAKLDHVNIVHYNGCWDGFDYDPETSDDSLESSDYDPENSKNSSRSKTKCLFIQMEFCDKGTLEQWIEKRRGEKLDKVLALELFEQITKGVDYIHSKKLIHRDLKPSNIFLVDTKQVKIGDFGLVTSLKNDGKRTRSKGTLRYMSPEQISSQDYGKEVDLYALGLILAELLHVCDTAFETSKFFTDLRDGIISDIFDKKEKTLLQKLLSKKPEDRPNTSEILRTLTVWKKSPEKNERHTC
UniProt Q16610: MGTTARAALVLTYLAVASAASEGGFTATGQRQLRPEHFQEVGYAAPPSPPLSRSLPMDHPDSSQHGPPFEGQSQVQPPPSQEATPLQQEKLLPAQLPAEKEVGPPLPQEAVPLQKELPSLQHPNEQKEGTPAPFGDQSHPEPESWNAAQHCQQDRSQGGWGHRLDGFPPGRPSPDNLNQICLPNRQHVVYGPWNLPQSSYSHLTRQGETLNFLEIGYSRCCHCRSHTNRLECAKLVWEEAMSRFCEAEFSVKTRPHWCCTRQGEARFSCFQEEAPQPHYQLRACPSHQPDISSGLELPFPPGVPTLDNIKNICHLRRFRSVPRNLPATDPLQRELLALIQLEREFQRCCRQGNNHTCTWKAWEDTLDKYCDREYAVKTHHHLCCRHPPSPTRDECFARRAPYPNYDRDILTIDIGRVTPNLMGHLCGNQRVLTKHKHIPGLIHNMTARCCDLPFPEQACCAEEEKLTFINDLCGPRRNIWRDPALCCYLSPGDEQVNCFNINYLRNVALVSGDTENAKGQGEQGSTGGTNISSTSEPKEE
UniProt Q9UHF1: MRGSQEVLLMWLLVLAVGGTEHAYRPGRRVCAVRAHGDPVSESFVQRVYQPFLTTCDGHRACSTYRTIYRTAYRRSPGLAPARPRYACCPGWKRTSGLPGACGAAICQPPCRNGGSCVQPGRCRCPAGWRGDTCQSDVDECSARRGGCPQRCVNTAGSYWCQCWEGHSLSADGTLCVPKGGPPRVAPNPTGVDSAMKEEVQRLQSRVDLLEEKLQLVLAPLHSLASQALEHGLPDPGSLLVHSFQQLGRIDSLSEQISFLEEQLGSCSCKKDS
UniProt P47813, whole entry, looked up: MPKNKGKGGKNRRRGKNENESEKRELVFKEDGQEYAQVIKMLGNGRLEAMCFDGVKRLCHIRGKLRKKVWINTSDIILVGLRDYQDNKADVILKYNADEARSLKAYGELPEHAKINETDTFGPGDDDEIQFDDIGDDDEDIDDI

compound: CC1Cc2ccccc2N1C(=O)C1CCCN(C1)C(=O)CCl (mixture of isomers) [TRIM25 ligand 11 (diastereomer mixture)]; test: probe-labelled cysteine peptide fold change vs DMSO (competition) (log2 fold change); higher = less target engagement (more negative = stronger competition); conditions: 50 µM; THP-1; incubation time: 4 h
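Further: competitive chemoproteomic profiling in live THP-1 cells with an iodoacetamide desthiobiotin (IA-DTB) probe, comparing probe-labelled peptide intensities in compound-treated cells against DMSO-treated controls.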

Row | Target | probe-labelled cysteine peptide fold change
1 | EHMT1_Q9H9B1_58_QAGEAHMAADGETNGSCENSDASSHANAAK (UniProt Q9H9B1) | -0.229
2 | EFEMP1_Q12805_190_ADQVCINLR (UniProt Q12805) | 0.364
3 | EFTUD2_Q15029_144+148_TCFVDCLIEQTHPEIR (UniProt Q15029) | -0.0748
4 | EED_O75530_361_FDYSQCDIWYMR (UniProt O75530) | 0.127
5 | EIF2B1_Q14232_218_IGTNQMAVCAK (UniProt Q14232) | -0.136
6 | EHMT1_Q9H9B1_842_DAEGSTCLHLAAK (UniProt Q9H9B1) | -0.12
7 | EIF2S1_P05198_98_VSPEEAIKCEDK (UniProt P05198) | -0.281
8 | EFEMP1_Q12805_70_CVNHYGGYLCLPK (UniProt Q12805) | 0.0934
9 | EHMT1_Q9H9B1_1105_LLPEFNMAEPPLIFECNHACSCWR (UniProt Q9H9B1) | 0.0212
10 | ECPAS_Q5VYK3_1420_SCAFAMGHLVR (UniProt Q5VYK3) | 0.138
11 | EEF1A2_Q05639_411_SGDAAIVEMVPGKPMCVESFSQYPPLGR (UniProt Q05639) | -0.134
12 | EEF2_P13639_369_CELLYEGPPDDEAAMGIK (UniProt P13639) | -0.139
13 | EEFSEC_P57772_55_GITLDLGFSCFSVPLPAR (UniProt P57772) | 0.184
14 | EHMT1_Q9H9B1_575_APLLVLCEDHR (UniProt Q9H9B1) | -0.0116
15 | EED_O75530_401_CTTLTHHK (UniProt O75530) | -0.141
16 | EIF2S2_P20042_226_KTSFVNFTDICK (UniProt P20042) | -0.0977
17 | EFTUD2_Q15029_674_CFAETPNK (UniProt Q15029) | -0.00194
18 | ECI2_O75521_282_ATFHTPFSHLGQSPEGCSSYTFPK (UniProt O75521) | 0.137
19 | EIF2B3_Q9NR50_300_CYVHIMK (UniProt Q9NR50) | 0.0363

Shown in CSV form: entries from further up
Row,Target,probe-labelled cysteine peptide fold change
1,EHMT1_Q9H9B1_58_QAGEAHMAADGETNGSCENSDASSHANAAK (UniProt Q9H9B1),-0.229
2,EFEMP1_Q12805_190_ADQVCINLR (UniProt Q12805),0.364
3,EFTUD2_Q15029_144+148_TCFVDCLIEQTHPEIR (UniProt Q15029),-0.0748
4,EED_O75530_361_FDYSQCDIWYMR (UniProt O75530),0.127
5,EIF2B1_Q14232_218_IGTNQMAVCAK (UniProt Q14232),-0.136
6,EHMT1_Q9H9B1_842_DAEGSTCLHLAAK (UniProt Q9H9B1),-0.12

More results follow:

Row | Target | probe-labelled cysteine peptide fold change
20 | EHMT1_Q9H9B1_978_EGETPLQCASLNSQVWSALQMSK (UniProt Q9H9B1) | 0.0915
21 | EIF3A_Q14152_478_HCDLQVR (UniProt Q14152) | -0.063
22 | EEF1AKMT1_Q8WVE0_149_IAAHSFDIVIADPPYLSEECLR (UniProt Q8WVE0) | -0.00191
23 | EIF2S3_P41091_101_LDDPSCPRPECYR (UniProt P41091) | 0.122
24 | EIF3A_Q14152_198_KLCDNLR (UniProt Q14152) | -0.0594
25 | EIF2A_Q9BY44_366_PVASDSTYFAWCPDGEHILTATCAPR (UniProt Q9BY44) | 0.316
26 | EFL1_Q7Z2Z2_23_NICVLAHVDHGK (UniProt Q7Z2Z2) | -0.0842
27 | EED_O75530_126_VTLYECHSQGEIR (UniProt O75530) | 0.32
28 | EHBP1L1_Q8N3D4_346_ETQAQACPQEGTEAHGAR (UniProt Q8N3D4) | 0.108
29 | EIF2AK2_P19525_369_CLFIQMEFCDK (UniProt P19525) | 0.000931
30 | ECM1_Q16610_151_EGTPAPFGDQSHPEPESWNAAQHCQQDR (UniProt Q16610) | 0.299
31 | EEF2_P13639_466_YVEPIEDVPCGNIVGLVGVDQFLVK (UniProt P13639) | 0.0324
32 | ECH1_Q13011_182_CPKPVIAAVHGGCIGGGVDLVTACDIR (UniProt Q13011) | -0.0748
33 | EEF1A1_P68104_363_GNVAGDSKNDPPMEAAGFTAQVIILNHPGQISAGYAPVLDCHTAHIACK (UniProt P68104) | -0.432
34 | EIF2A_Q9BY44_377_LISKPVASDSTYFAWCPDGEHILTATCAPR (UniProt Q9BY44) | 0.0907
35 | EIF2B3_Q9NR50_424_DCLIGSGQR (UniProt Q9NR50) | -0.0485
36 | EGFL7_Q9UHF1_267_IDSLSEQISFLEEQLGSCSCK (UniProt Q9UHF1) | -0.221
37 | EIF1AX_P47813_51_LEAMCFDGVKR (UniProt P47813) | 0.0645
